Literature values in US8691764B2, “Inhibitors of NF-κB activity” (The Research Foundation for the State University of New York, priority 2007, dated 2014).
At least one compound was matched to its structure with a doubt left.

Details: cortisol=1; cited from earlier work

C[C@]12CCC(=O)C=C1CC[C@H]1[C@@H]3CC[C@](O)(C(=O)CO)[C@@]3(C)C[C@H](O)[C@@]12F [fludrocortisone]
relative anti-inflammatory potency: 10
